Measured values reported in PubChem BioAssay AID540303 (National Center for Advancing Translational Sciences (NCATS), 2011).
In all, about 330,000 compounds went through this assay and about 1,000 (0.3%) were called active. This list was built around the results that the source calls inconclusive (neither active nor inactive); the mix of calls is not that of the screen. Calls come from the whole dose curve; as a rule, active = well fitted inhibition curve with a large enough effect; inconclusive = small, poorly fitted or top-dose-only effect; inactive = no such curve, though single readings can be large or run the other way; tested in mouse RAW 264.7 cells. Potencies of inconclusive entries are doubtful fits and often do not repeat.

assay: qHTS for Inhibitors of Cell Surface uPA Generation; conditions: cell surface uPA generation assay; series mostly up to 38.3 µM; note: nearly all actives have a fitted effect of over 55% in size
Method in brief: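 Intracellular ATP by ATPlite luminescence serves as read-out: inhibited cell-surface uPA generation prevents LF translocation, preserving ATP. Murine RAW 264.7 macrophages were treated 24 h at 37 C with five-fold serial dilutions, up to 38.3 uM final.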
Potency is the fitted concentration of half-maximal effect.

Structure (SMILES) | Potency
O=[N+]([O-])c1ccc(S(=O)(=O)c2ccccc2)nc1 | inconclusive: 3.16 µM [inhibitor, partial curve, poor fit]
CCOC(=O)C[C@H]1c2cc(F)ccc2S(=O)(=O)N1c1ccccc1 | inconclusive: 3.98 µM [inhibitor, partial curve, poor fit]
Cc1ccc(NC(=O)c2nc[nH]c2C(=O)N[C@@H](CCCCNC(=O)OC(C)(C)C)C(=O)OC(C)(C)C)cc1 | inconclusive: 28.2 µM [inhibitor, single point]
CN(C)c1ccc(N=Nc2ccccc2C(=O)OCC(=O)Nc2ccccc2C(F)(F)F)cc1 | inactive
CCCc1[nH]n(-c2nc3ccccc3s2)c(=O)c1C=NCC(C)C | inactive
COc1cc2c(cc1OC)C(C)N(S(=O)(=O)c1cnc(Cl)c(Cl)c1)CC2 (centres undefined) | inconclusive: 1 µM [inhibitor, single point]
Cn1ncc2c(Nc3ccc(Cl)cc3)ncnc21 | inactive
N#C/C(=C\c1ccc(O)c(O)c1)C(=O)NCCc1ccccc1 | inconclusive: 1 µM [inhibitor, partial curve, poor fit]
COc1ccc(C(=O)c2ccc(N(C)C)cc2)c2ccccc12 | inconclusive: 2.82 µM [inhibitor, full curve, poor fit]
COc1ccc(N2CCN(CNC(=O)c3ccccc3)CC2)cc1 | inactive
CCOC(=O)C1=C(C)NC(SCC(N)=O)=C(C#N)C1c1ccccc1 (centres undefined) | inconclusive: 5.01 µM [inhibitor, partial curve, poor fit]
C=CCN1C(=S)CC(c2ccccc2)=Nc2ccccc21 | inconclusive: 7.08 µM [inhibitor, partial curve, poor fit]
O=C(Nc1ccc(Cl)cc1)Nc1cccc2nsnc12 | inconclusive: 12.6 µM [inhibitor, partial curve, poor fit]
Cc1ccc(S(=O)(=O)N2CCCCC2)cc1NC(=O)c1nn(C)c(=O)c2ccccc12 | inactive
CCCN1CCC(=NNc2ccc(S(=O)(=O)N(CC)CC)cc2[N+](=O)[O-])CC1 | inactive
Cc1nc(SCC(=O)NCc2ccco2)[nH]c(=O)c1C | inconclusive: 12.6 µM [inhibitor, partial curve, poor fit]
CC(C)N(C(=O)[C@H]1CC(CC(=O)NCCc2ccccn2)C(=O)N2CCc3c([nH]c4ccccc34)[C@]12C)C(C)C (some centres undefined) | inactive
CCc1ccccc1NC(=S)/N=C(\N)Nc1nc(C)c2cc(C)ccc2n1 | inconclusive: 28.2 µM [inhibitor, single point]
CC(=O)c1cn(CCOc2ccccc2C)c2ccccc12 | active: 5.62 µM
CC(=O)O[C@H]1C[C@@]2(C)[C@@H](C[C@@H](O)[C@H]3[C@@]4(C)CC[C@@H](O)[C@@H](C)[C@@H]4CC[C@@]32C)/C1=C(\CCC=C(C)C)C(=O)O | inconclusive: 4.47 µM [inhibitor, partial curve, poor fit]
Nc1nn2cc(-c3ccc(Br)cc3)nc2c2ccccc12 | inconclusive: 10 µM [inhibitor, partial curve, poor fit]
COc1cc(/C=C2\N=C(C)OC2=O)cc(OC)c1OC | inconclusive: 12.6 µM [inhibitor, single point]

Structural class: the entries above with a carbonyl joined to an NH by a bond outside any ring (nine)
Structure (SMILES) | Potency
Cc1ccc(NC(=O)c2nc[nH]c2C(=O)N[C@@H](CCCCNC(=O)OC(C)(C)C)C(=O)OC(C)(C)C)cc1 | inconclusive: 28.2 µM [inhibitor, single point]
CN(C)c1ccc(N=Nc2ccccc2C(=O)OCC(=O)Nc2ccccc2C(F)(F)F)cc1 | inactive
N#C/C(=C\c1ccc(O)c(O)c1)C(=O)NCCc1ccccc1 | inconclusive: 1 µM [inhibitor, partial curve, poor fit]
COc1ccc(N2CCN(CNC(=O)c3ccccc3)CC2)cc1 | inactive
CCOC(=O)C1=C(C)NC(SCC(N)=O)=C(C#N)C1c1ccccc1 (centres undefined) | inconclusive: 5.01 µM [inhibitor, partial curve, poor fit]
O=C(Nc1ccc(Cl)cc1)Nc1cccc2nsnc12 | inconclusive: 12.6 µM [inhibitor, partial curve, poor fit]
Cc1ccc(S(=O)(=O)N2CCCCC2)cc1NC(=O)c1nn(C)c(=O)c2ccccc12 | inactive
Cc1nc(SCC(=O)NCc2ccco2)[nH]c(=O)c1C | inconclusive: 12.6 µM [inhibitor, partial curve, poor fit]
CC(C)N(C(=O)[C@H]1CC(CC(=O)NCCc2ccccn2)C(=O)N2CCc3c([nH]c4ccccc34)[C@]12C)C(C)C (some centres undefined) | inactive

(cont.)

Structure (SMILES) | Potency
O=C(Nc1cccc(S(=O)(=O)N2CCCCC2)c1)[C@@H]1CCCN1S(=O)(=O)c1ccccc1C(F)(F)F | inconclusive: 0.316 µM [inhibitor, full curve, poor fit]
O=C(N/N=C/C(Br)=C/c1ccccc1)c1ccc([N+](=O)[O-])cc1 | inconclusive: 12.6 µM [inhibitor, single point]
Cc1cc(C(=O)COC(=O)c2cccnc2Cl)c(C)n1C | active: 8.91 µM
COc1cc(CNc2ccc(C)c(C)c2)cc(OC)c1OC | inconclusive: 0.891 µM [inhibitor, partial curve, poor fit]
O=C(CCl)N=c1sccn1Cc1cccc2ccccc12 | active: 0.224 µM
CCN(CC)C(=O)[C@H]1CC(CC(=O)NCC23CC4CC(CC(C4)C2)C3)C(=O)N2CCc3c([nH]c4ccccc34)[C@]12C (some centres undefined) | inconclusive: 14.1 µM [inhibitor, single point]
CCCCCc1n[nH]c2c1CCCC2 | inactive
Cc1ccc(S(=O)(=O)Nc2ccc3c(c2)nc(CCN2CCCC2)n3C)cc1 | inconclusive: 6.31 µM [inhibitor, single point]
Cc1onc(-c2ccccc2Cl)c1C(=O)Nc1cccc(S(=O)(=O)N2CCOCC2)c1 | inactive
O=C(Nc1ncc(Cc2ccc(SC(F)F)cc2)s1)c1ccccc1 | inactive
Cc1ccc(S(=O)(=O)c2cn(C)c3cc(N4CCN(C)CC4)c(F)cc3c2=O)c(C)c1 | inconclusive: 12.6 µM [inhibitor, single point]
O=C1C2C3C=CC(CO)(O3)C2C(=O)N1c1ccccc1-c1ccccc1 (centres undefined) | inconclusive: 11.2 µM [inhibitor, single point]
COc1cc(C(=O)NCc2nnc(SCC(=O)Nc3nc4ccccc4s3)o2)cc(OC)c1OC | inactive
CCC(NC(=S)NCc1ccc(F)cc1)c1ccc(C(C)C)cc1 (centres undefined) | inconclusive: 28.2 µM [inhibitor, single point]
O=C(CNc1ccc2c(c1)OCO2)N/N=C\c1cn(Cc2ccccc2)c2ccccc12 | inactive
CN(Cc1ccc(Cl)cc1)C(=O)CCl | active: 7.94 µM
COc1ccc(C(=O)NC2CCCc3ccccc32)cc1Br (centres undefined) | inactive
COC(=O)CCCC(=O)N1CCCC(C(=O)c2ccccc2SC)C1 (centres undefined) | inconclusive: 1 µM [inhibitor, partial curve, poor fit]
CCc1sc(C(=O)Nc2ccc(NC(C)=O)cc2)cc1C | inactive
N/C(=N\OC(=O)c1cccc(Br)c1)c1ccccn1 | inconclusive: 10 µM [inhibitor, partial curve, poor fit]
CN(C)c1ccc(N=Nc2ccccc2Br)cc1 | inconclusive: 3.55 µM [inhibitor, partial curve]
CC(=O)c1cc2c(cc1NC(=O)c1cc(C)nn1-c1ccccc1)OCO2 | inconclusive: 3.16 µM [inhibitor, single point]
